The assay has as its target Sli15 MTB-12Q fused to the DNA binding domain of Gal4 (S. cerevisiae). Kind of assay: two-hybrid.

These are yes or no findings as the source states them, for the method shown. Sequences can lack the tags named with a protein.

B1: Dam1 fused to the activation domain of Gal4 (protein, UniProt P53267 1-343)
chain: MSEDKAKLGTTRSATEYRLSIGSAPTSRRSSMGESSSLMKFADQEGLTSSVGEYNENTIQQLLLPKIRELSDSIITLDSNFTRLNFIHESLADLNESLGSLLYGIMSNSWCVEFSQAPHDIQDDLIAIKQLKSLEDEKNNLVMELSNMERGIKRKKDEQGENDLAKASQNKQFNQPLFPSSQVRKYRSYDNRDKRKPSKIGNNLQVENEEDYEDDTSSEASFVLNPTNIGMSKSSQGHVTKTTRLNNNTNSKLRRKSILHTIRNSIASGADLPIENDNVVNLGDLHPNNRISLGSGAARVVNGPVTKNRNSMFSGRAERKPTESRHSVAKKTEKKINTRPPFR
Consider B1, for which the binding result is recorded as “no binding”.

Values taken from doi:10.1101/2020.09.10.288878.
